Results reported in patent publication US7598352B2, “Method of identifying polypeptide monobodies which bind to target proteins and use thereof” (University of Rochester, priority 2000, dated 2009).
Results are given in words; binding and its absence hold for the method and conditions named. Some results given as binding are weak or reduced against the parent protein; the word gives no strength.

Chains of the proteins cited; added tags and fusions are not shown. Residues count along the entry.
UniProt Q15788, residues 570-780: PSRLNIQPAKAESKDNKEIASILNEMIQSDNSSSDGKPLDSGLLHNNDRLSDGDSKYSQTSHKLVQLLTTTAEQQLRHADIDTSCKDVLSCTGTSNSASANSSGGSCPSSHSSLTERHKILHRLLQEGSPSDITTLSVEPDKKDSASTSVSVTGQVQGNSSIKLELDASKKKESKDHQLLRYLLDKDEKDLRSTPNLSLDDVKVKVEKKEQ

Legend:
[1] = target: LexA-ERα-EF fusion protein (E and F domains of Estrogen Receptor α, residues 297-595) (human); assay: yeast two-hybrid quantitative β-galactosidase assay, with E2
[2] = target: LexA-ERα-EF fusion protein (E and F domains of Estrogen Receptor α, residues 297-595) (human); assay: yeast two-hybrid quantitative β-galactosidase assay, with different agonists

binding [1]: binds
binding [2]: binds
Substance: SRC-1 (steroid receptor coactivator-1) NR-box fragment, residues 570-780, activation domain fusion (from UniProt Q15788 570-780)
